Assay results taken from patent US6093720A, “Trans apovincaminic acid ester derivatives” (Richter Gedeon Vegyeszeti GmbH, priority 1995, dated 2000).
Structures can show the parent of a compound that is named as a salt. At least one read-out could not be matched to a standard name with certainty.

Experiment: Antiischemic effect on bilateral (carotid) artery ligation model, mortality
Type: in vivo, mice
Settings: 2 mg/kg i.p., 30 minutes before 5-minute bilateral carotid ligation; control mortality 70%
Method: 1. Antiischemic Effect (On Bilateral Artery Ligation Model)
N. Himori et al.: Cerebral ischemia model with conscious mice involvement of NMDA receptor activation and derangement of learning and memory ability [J. Pharmacol. Meth. 23, 311-327 (1990)].
Carotid arteries of mice (weighing 30 to 32 g each) were exposed bilaterally under anaesthesia by 450 mg/kg of intraperitoneal (i.p.) chloral hydrate. The sympathetic and vagal nerves were separated and a loose ligation was bilaterally placed below the carotid arteries. Both ends of the ligation were led out on the back, behind the ears. Next day, in conscious state both ends of the ligation were pulled resulting in the stopping of blood supply through the carotid arteries. This was maintained for 5 minutes, then released to provide the reperfusion. The number of animals died during the 5-minute period and the following 24 hours were registered. The calculation of significance was performed by the chi^2 test. The pre-treatment with the compound was carried out intraperitoneally (i.p.) 30 minutes before the ligation.
The transient dramatic decrease in the cerebral blood supply, then the starting of reperfusion after stopping the ligation leads to the formation of extremely toxic oxygen free radicals (superoxide radical, hydrogen peroxide). […]

SMILES | Mortality % [%]
CC[C@@]12C=C(C(=O)OCCOC(C)=O)n3c4c(c5ccccc53)CCN(CCC1)[C@@H]42 [Compound 2705279, (-)-trans apovincaminic acid 2-acetoxyethyl ester(3β,16α)monohydrochloride] | 10
CC[C@@]12C=C(C(=O)OCCOC(=O)c3ccccc3)n3c4c(c5ccccc53)CCN(CCC1)[C@@H]42 [Compound 1010960, (-)-trans apovincaminic acid 2-(benzoyloxy)ethyl ester(3β,16α)hydrochloride] | 20
